# Patent US20110151497A1, “METABOLOMIC PROFILING OF PROSTATE CANCER” (THE REGENTS OF THE UNIVERSITY OF MICHIGAN, priority 2009, published 2011)
# System: prostate cancer cell lines (LNCaP, VCaP, DU145, PC3, 2RVV1) vs RWPE
# Assay: GC-MS quantification of polyamines in prostate cell lines
# Assay type: cell-based
row,SMILES,levels in non-invasive prostate cell line (RWPE) compared to invasive prostate cancer cell lines
1,NCCCCN [putrescine],higher levels
2,NCCCCNCCCN [spermidine],higher levels
3,NCCCNCCCCNCCCN [spermine],higher levels
